Reference: paper PMC12375108
Residue numbers refer to the chain shown, from its start. Numbers in names are those of the source. No constants are given. Whether binding was seen depends on the method and setting. Some results given as binding are weak or reduced against the parent protein; the word gives no strength. Sequences can lack the tags named with a protein.

Amino acid sequences for entries named in this document (tags omitted). Residues count along the entry.
UniProt P11021, residues 19-654: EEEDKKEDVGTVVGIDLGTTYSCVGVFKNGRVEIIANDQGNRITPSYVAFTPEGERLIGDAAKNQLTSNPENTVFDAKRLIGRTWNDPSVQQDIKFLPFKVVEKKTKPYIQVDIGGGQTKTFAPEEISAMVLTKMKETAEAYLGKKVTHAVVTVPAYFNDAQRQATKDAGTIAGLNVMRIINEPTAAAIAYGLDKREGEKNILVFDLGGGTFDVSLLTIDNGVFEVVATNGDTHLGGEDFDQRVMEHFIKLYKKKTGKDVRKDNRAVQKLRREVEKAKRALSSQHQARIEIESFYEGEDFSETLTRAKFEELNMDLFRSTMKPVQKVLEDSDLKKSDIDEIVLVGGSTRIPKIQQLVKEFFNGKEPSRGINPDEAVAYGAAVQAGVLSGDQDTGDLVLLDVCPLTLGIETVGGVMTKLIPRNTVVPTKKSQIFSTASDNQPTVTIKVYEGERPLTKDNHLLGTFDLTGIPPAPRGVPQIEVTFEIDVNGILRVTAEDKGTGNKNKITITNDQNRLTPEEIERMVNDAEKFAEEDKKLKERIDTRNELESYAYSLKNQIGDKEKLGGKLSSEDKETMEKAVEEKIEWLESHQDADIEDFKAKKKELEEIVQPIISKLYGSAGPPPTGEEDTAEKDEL

B1: GST-tagged E. coli hinT H101N (enzyme, UniProt P0ACE7 1-119)
chain: MAEETIFSKIIRREIPSDIVYQDDLVTAFRDISPQAPTHILIIPNILIPTVNDVSAEHEQALGRMITVAAKIAEQEGIAEDGYRLIMNTNRHGGQEVYHINMHLLGGRPLGPMLAHKGL
B2: AMPylated sodA (enzyme, UniProt P00448 1-206)
chain: MSYTLPSLPYAYDALEPHFDKQTMEIHHTKHHQTYVNNANAALESLPEFANLPVEELITKLDQLPADKKTVLRNNAGGHANHSLFWKGLKKGTTLQGDLKAAIERDFGSVDNFKAEFEKAAASRFGSGWAWLVLKGDKLAVVSTANQDSPLMGEAISGASGFPIMGLDVWEHAYYLKFQNRRPDYIKEFWNVVNWDEAAARFAAKK
modifications: AMPylated on tyrosine, residue not given
B3: GST-tagged H. sapiens hinT H112N (enzyme, UniProt P49773 1-126)
chain: MADEIAKAQVARPGGDTIFGKIIRKEIPAKIIFEDDRCLAFHDISPQAPTHFLVIPKKHISQISVAEDDDESLLGHLMIVGKKCAADLGLNKGYRMVVNEGSDGGQSVYHVNLHVLGGRQMHWPPG

Tests used:
[1] = target: T1, AMPylated sodA (UniProt P00448); assay: far-Western, overlay or dot blot; dot blot: 400 ng to 25 ng of AMPylated or non-AMPylated protein spotted on nitrocellulose, probed with GST or GST-hinT at 0.125 μg/mL in TBST for 1 h, detected with α-GST; both purified
T1 sequence (chain, AMPylated on tyrosine, residue not printed): B2 chain

[2] = target: AMPylated BiP (UniProt P11021); assay: far-Western, overlay or dot blot; far western: 0.5 μg/lane of AMPylated and non-AMPylated SodA, Rab1, Rac1 and BiP resolved by SDS-PAGE, membrane probed with 0.06 μg/ml GST-hinT homologs for 1 h at room temperature, detected with α-GST; both purified
[3] = target: T2, GST-tagged E. coli hinT H101N (E. coli) (UniProt P0ACE7); assay: pull-down; 5 μg GST or GST-hinT on glutathione agarose, 2 μg AMPylated substrate, 1 h at 4 °C, TBSTX-100 with 1 mM DTT; α-AMP immunoblot; both purified
T2 sequence: B1 chain

[4] = target: T3, GST-tagged E. coli hinT H101N E96S (E. coli) (UniProt P0ACE7); assay: as above
T3 sequence: B1 chain with E96S

Binder	binding [1]	binding [2]	binding [3]	binding [4]
B1	binds	no binding (tested: 0.06 μg/ml; 0.5 μg/lane)	–	–
B2	–	–	binds	binds
B3	–	no binding (tested: 0.06 μg/ml; 0.5 μg/lane)	–	–
